Measurements reported in PubChem BioAssay AID504808 (Drosophila RNAi Screening Center, 2011).
The deposit covers about 21,000 reagents; below is a random part of those with a known target gene and a result. Of all reagents, 18 (0.084%) got an active call. 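Raw counts without plate normalisation, one of two replicates; the ratio scores behind the calls were not deposited.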 Entries without a mark were called inactive. A plus sign joins genes that one reagent is predicted to hit. Not stated in the record: the amount of reagent, the time to read-out.

Purpose: 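Genes whose loss lifts activity of an E2F-responsive reporter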 (primary screen)
Cells: Drosophila S2 cells
Reagent: long dsRNA against Drosophila genes
Detection: 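Firefly luciferase driven by E2F sites, normalised to Renilla luciferase on the same minimal promoter, measured by plate reader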
Scale: E2F firefly: higher = more E2F reporter activity; Renilla normaliser: higher = more normaliser reporter signal
Active means: 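Called active if the normalised E2F reporter went up by over 50%; the cutoff is arbitrary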

The first 10 entries as a preview:
gene	dsRNA	E2F firefly, rep 1	Renilla normaliser, rep 1
Taf11 (TBP-associated factor 11)	DRSC03448	1.13e5	4879
CG14105	DRSC10107	1.21e5	6726
disco (disconnected)	DRSC20323	1.48e5	5732
jigr1 (jing interacting gene regulatory 1)	DRSC13724	80876	2513
jigr1 (jing interacting gene regulatory 1)	DRSC15233	1.07e5	5629
pncr004:X (retired record)	DRSC19295	91978	2604
CG31287	DRSC13138	76147	2292
Keap1	DRSC15528	62285	2944
Ekar (Eye-enriched kainate receptor)	DRSC17161	46044	3710
Rabex-5 (Rabaptin-5-associated exchange factor for Rab5)	DRSC08628	77444	3237

Results, from the start:
gene	dsRNA	E2F firefly, rep 1	Renilla normaliser, rep 1
Taf11 (TBP-associated factor 11)	DRSC03448	1.13e5	4879
CG14105	DRSC10107	1.21e5	6726
disco (disconnected)	DRSC20323	1.48e5	5732
jigr1 (jing interacting gene regulatory 1)	DRSC13724	80876	2513
jigr1 (jing interacting gene regulatory 1)	DRSC15233	1.07e5	5629
pncr004:X (retired record)	DRSC19295	91978	2604
CG31287	DRSC13138	76147	2292
Keap1	DRSC15528	62285	2944
Ekar (Eye-enriched kainate receptor)	DRSC17161	46044	3710
Rabex-5 (Rabaptin-5-associated exchange factor for Rab5)	DRSC08628	77444	3237
grk (gurken)	DRSC03540	78029	3329
Mdr49 (Multi drug resistance 49)	DRSC07466	114	32
ninaG	DRSC16102	1.50e5	6830
mbm (mushroom body miniature)	DRSC00319	88999	4524
CG15879	DRSC08487	1.04e5	4726
epsilonCOP (Coat Protein (coatomer) epsilon)	DRSC02003	86508	4102
CG11151	DRSC19387	1.48e5	13471
dtr (defective transmitter release)	DRSC01847	90084	3104
CG40378 (retired record)	DRSC20958	84277	2409
CG7692	DRSC10902	2.40e5	8820
SiaT (Sialyltransferase)	DRSC04494	1.12e5	4674
CG12470	DRSC18620	1.25e5	5761
CG14424	DRSC18472	1.21e5	6182
CG17618 (retired record) + CG45049	DRSC16163	1.19e5	5939
RpL23A (Ribosomal protein L23A)	DRSC08694	58068	3936
CG1602	DRSC06601	1.47e5	5295
EDTP (Egg-derived tyrosine phosphatase)	DRSC07409	1.33e5	4932
CG17472	DRSC02622	1.02e5	4481
CG17361	DRSC10266	1.58e5	7488
CG31533	DRSC13018	88243	2528
CecB (Cecropin B)	DRSC16605	1.05e5	5523
CG10481	DRSC02063	96880	3922
CG15432	DRSC00447	1.23e5	5569
Fer2 (48 related 2)	DRSC15925	1.11e5	5606
bip1	DRSC11327	69123	4120
hoe1 (hoepel1)	DRSC00265	1.02e5	4387
hoe1 (hoepel1)	DRSC00333	1.48e5	4987
hoe1 (hoepel1)	DRSC00353	1.37e5	5943
Snx1 (Sorting nexin 1)	DRSC00531	1.50e5	4729
SmydA-2 (SET and MYND domain containing, arthropod-specific, member 2)	DRSC10296	1.16e5	6213
DIP-epsilon (Dpr-interacting protein epsilon)	DRSC00932	1.39e5	5865
DIP-epsilon (Dpr-interacting protein epsilon)	DRSC02313	1.61e5	5165
alphaTub84B (alpha-Tubulin at 84B)	DRSC12622	1.11e5	6445
Vha14-2 (Vacuolar H[+] ATPase 14kD subunit 2)	DRSC12145	1.31e5	6880
Xxylt (Xyloside xylosyltransferase)	DRSC04107	77741	3144
CG6432	DRSC16039	56648	3354
CG33796	DRSC09417	1.25e5	3668
stv (starvin)	DRSC09796	69532	3252
stv (starvin)	DRSC10111	1.08e5	5421
CG31128	DRSC13675	77566	2050
mtm (myotubularin)	DRSC03576	81810	3534
CG6553	DRSC07002	93336	3712
CG14330	DRSC14809	1.16e5	6947
MESR6 (Misexpression suppressor of ras 6)	DRSC10720	73145	3519
DIP2 (DISCO Interacting Protein 2)	DRSC08582	71256	3390
CG43996	DRSC19456	2.15e5	7600
CG43996	DRSC19457	1.57e5	6859
Tbh (Tyramine beta hydroxylase)	DRSC18723	56731	4306
CG12299	DRSC02158	91740	3417
CG33998	DRSC05747	1.61e5	5244
ATPsyngamma (ATP synthase, gamma subunit)	DRSC14094	1.08e5	6610
mahe (maheshvara)	DRSC17755	8253	768
CG33342 (HDC15381)	DRSC13662	76095	2334
CG5808	DRSC14124	65390	3478
CG32276	DRSC08027	1.23e5	4610
CG9702	DRSC16540	1.29e5	6937
ATPsynGL (ATP synthase, subunit G-like)	DRSC03027	1.37e5	4905
CG30373	DRSC05081	1.27e5	5569
BCAS2	DRSC15693	1711	1068
CG6933	DRSC10751	68994	3272
CG5357 (retired record)	DRSC04497	1.10e5	4166
TTLL12 (Tubulin tyrosine ligase-like 12)	DRSC06555	1.44e5	4856
CG15293	DRSC01919	96972	3944
Not1	DRSC06787	1.50e5	5573
Not1	DRSC06794	3473	248
NimB4 (Nimrod B4)	DRSC01884	89292	4164
Pgant4 (Polypeptide N-Acetylgalactosaminyltransferase 4)	DRSC00717	1.67e5	4760
CG6138	DRSC02933	1.65e5	5442
CG6791	DRSC16118	78513	3987
CG14143	DRSC10146	1.19e5	5790
alphaTub84D (alpha-Tubulin at 84D)	DRSC12623	1.06e5	5718
AstA-R1 (Allatostatin A receptor 1)	DRSC17278	90265	2613
AstA-R1 (Allatostatin A receptor 1)	DRSC17727	98144	6687
Act57B (Actin 57B)	DRSC04042	85865	4241
